Data on 1 molecule can be found in patent US6562848B1, “Bis-amino acid sulfonamides as HIV protease inhibitors” (Bristol-Myers Squibb Company, priority 2001, dated 2003).

Converted amounts (≈) assume the structure as drawn.

In the test the test system is HIV-1 (RF). Description: HIV RNA assay: microplate based compound evaluation in HIV-1 infected MT-2 cells. It is filed as cell-based. The following applies: Human immunodeficiency virus 1, MT2, 72 h; HIV-1 (RF) infected MT-2 cells, 3 days of culture; value to which the virus inoculum was standardized; read-out: IC90 value (concentration of compound required to reduce the HIV RNA level by 90%). The method, then:
Plasmid pDAB 72 containing both gag and pol sequences of BH10 (bp 113-1816) cloned into PTZ 19R was prepared according to Erickson-Viitanen et al. AIDS Research and Human Retroviruses 1989, 5, 577. The plasmid was linearized with Bam HI prior to the generation of in vitro RNA transcripts using the Riboprobe Gemini system II kit (Promega) with T7 RNA polymerase. Synthesized RNA was purified by treatment with RNase free DNAse (Promega), phenol-chloroform extraction, and ethanol precipitation. RNA transcripts were dissolved in water, and stored at −70° C. The concentration of RNA was determined from the A260.
Biotinylated capture probes were purified by HPLC after synthesis on an Applied Biosystems (Foster City, Calif.) DNA synthesizer by addition of biotin to the 5′ terminal end of the oligonucleotide, using the biotin-phosphoramidite reagent of Cocuzza, Tet. Lett. 1989, 30, 6287. The gag biotinylated capture probe was complementary to nucleotides 889-912 of HXB2 and the pol biotinylated capture probe was complementary to nucleotides 2374-2395 of HXB2. […]
MT-2 and MT-4 cells were maintained in RPMI 1640 supplemented with 5% fetal calf serum (FCS) for MT-2 cells or 10% FCS for MT-4 cells, 2 mM L-glutamine and 50 μg/mL gentamycin, all from Gibco. […] Infectious titers of HIV-1 (RF) stocks were 1-3×10^7 PFU (plaque forming units)/mL as measured by plaque assay on MT-2 cells (see below). […]

Turning to `Nc1ccn([C@H]2CC[C@@H](CO)O2)c(=O)n1` [ddC, dideoxycytidine], the IC90 was found to be 0.2 µg/mL (≈ 0.947 µM).
